Measurements reported in PubChem BioAssay AID652243 (Drosophila RNAi Screening Center, 2013).

Screen: 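Fly genes required for human androgen receptor driven transcription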 (primary screen)
Cell system: Drosophila S2R+ cells
Reagent: long dsRNA against Drosophila genes
Time to read-out: 72 h (48 h, then 24 h hormone)
Challenge: synthetic androgen R1881 at 10 nM for 24 h
Measured: 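Firefly light from an androgen-responsive reporter and Renilla control light per well, raw and unnormalised, for each of two replicates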
Direction: firefly reporter light: higher = more light from androgen-responsive reporter; Renilla control light: higher = more constitutive control signal (cell number, transfection)
Hit rule: 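Across duplicate plates, a knock-down whose log firefly/Renilla ratio shifted a set fold down or up from the GFP/LacZ control mean was a hit; the downward cut appears as both 1.5 and 3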
Calls: active = hit: reporter lowered or raised; inactive = no hit
The deposit covers about 24,000 reagents; this is a random part of those with a known target gene and a result. Over the whole deposit, 246 (1%) are marked active. 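Plates not normalised; calls are printed but the firefly/Renilla ratio behind them is not deposited; fold cut for lowering reported inconsistently.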 Raw values vary from plate to plate and are shown uncorrected. Names joined by + are all predicted targets of the reagent. No sequences are given here. Not given: the amount of reagent.

gene,amplicon,"firefly reporter light, replicate 1","firefly reporter light, replicate 2","Renilla control light, replicate 1","Renilla control light, replicate 2",call
CG7741,DRSC07035,2.98e5,1.84e5,1.63e6,1.32e6,inactive
Npl4,DRSC15615,80715,1.11e5,4.76e5,4.89e5,inactive
Npl4,DRSC15616,1.56e5,2.03e5,2.26e6,2.31e6,inactive
Hrb98DE,DRSC16709,35213,51848,4.44e5,3.72e5,inactive
Hrb98DE,DRSC24508,2.44e5,2.42e5,6.23e5,6.61e5,active
CycA,DRSC09132,32264,33545,3.23e5,3.89e5,active
CycA,DRSC11123,72764,1.56e5,5.82e5,6.78e5,active
CycA,DRSC36992,,,,,active
ec,DRSC18658,1.72e5,2.37e5,4.03e6,3.12e6,inactive
ec,DRSC23902,5.74e5,4.52e5,5.16e5,5.08e5,inactive
CG33232 (retired record),DRSC08187,8.12e5,9.67e5,1.36e6,1.32e6,inactive
CG33232 (retired record),DRSC08495,38629,97837,7.12e5,1.01e6,inactive
CG17574,DRSC06681,4.24e5,4.50e5,2.97e6,2.82e6,inactive
St4,DRSC07008,64133,62464,1.18e6,1.18e6,inactive
Tom7,DRSC05135,3.47e5,4.23e5,3.96e5,2.96e5,inactive
Tom7,DRSC07113,2.63e5,2.27e5,2.11e6,1.46e6,inactive
CG34325,DRSC19802,5.40e5,5.18e5,3.73e6,4.17e6,inactive
CG34325,DRSC20200,6.14e5,5.61e5,3.93e6,3.95e6,inactive
CG14005,DRSC02337,6.97e5,7.36e5,1.80e6,1.56e6,inactive
Rcd6,DRSC06054,7.17e5,3.42e5,1.54e6,8.58e5,inactive
Rcd6,DRSC27115,3.99e5,3.07e5,4.85e5,3.82e5,inactive
Elba3,DRSC00469,8.00e5,7.88e5,1.82e6,2.32e6,inactive
CG15212,DRSC10212,3.09e5,2.15e5,2.05e6,2.29e6,inactive
nur,DRSC01342,2.05e5,2.16e5,6.42e5,6.25e5,inactive
nur,DRSC29629,1.82e5,3.68e5,4.34e5,4.34e5,inactive
CG10920,DRSC17765,1.54e5,2.21e5,1.60e6,1.77e6,inactive
CG12836,DRSC06182,4.19e5,4.17e5,2.25e6,2.02e6,inactive

Continued (3 carried over from the part before).
gene,amplicon,"firefly reporter light, replicate 1","firefly reporter light, replicate 2","Renilla control light, replicate 1","Renilla control light, replicate 2",call
nur,DRSC29629,1.82e5,3.68e5,4.34e5,4.34e5,inactive
CG10920,DRSC17765,1.54e5,2.21e5,1.60e6,1.77e6,inactive
CG12836,DRSC06182,4.19e5,4.17e5,2.25e6,2.02e6,inactive
CG15125,DRSC06547,88741,96269,1.13e6,1.63e6,inactive
salm,DRSC03606,2.15e5,2.48e5,1.94e6,1.51e6,inactive
salm,DRSC29912,4.79e5,4.47e5,1.03e6,1.08e6,inactive
CG7506,DRSC10860,7.04e5,4.91e5,2.02e6,1.59e6,inactive
Dera,DRSC07207,7.62e5,7.53e5,2.44e6,2.76e6,inactive
Dera,DRSC21336,6.54e5,8.77e5,2.05e6,2.42e6,inactive
Dera,DRSC26996,3.25e5,3.40e5,6.67e5,6.82e5,inactive
CG14327,DRSC14806,2.14e5,2.05e5,2.58e6,2.56e6,inactive
IntS8,DRSC07417,9.86e5,1.31e6,1.76e6,1.68e6,inactive
HERC2,DRSC20566,2.04e5,1.38e5,9.84e5,4.87e5,inactive
CG11131,DRSC11636,2.68e5,2.34e5,1.77e6,1.71e6,inactive
CG11131,DRSC21736,2.45e5,2.81e5,2.10e6,2.84e6,inactive
CG11131,DRSC28565,2.00e5,4.09e5,6.60e5,1.19e6,inactive
ng3,DRSC18804,2.22e5,1.66e5,3.21e6,2.29e6,inactive
ng3,DRSC25323,4.83e5,4.01e5,5.28e5,4.50e5,inactive
CG5171,DRSC02823,6.66e5,8.23e5,1.20e6,1.34e6,inactive
CG5171,DRSC28092,6.18e5,4.98e5,2.09e6,1.58e6,inactive
CG9692,DRSC11091,2.34e5,1.90e5,1.86e6,1.08e6,inactive
Hr3,DRSC07441,8.83e5,8.80e5,1.74e6,1.85e6,inactive
CG14183,DRSC10182,42822,38784,3.19e5,3.59e5,inactive
CG5644,DRSC10531,2.03e5,1.69e5,1.65e6,1.06e6,inactive
Jhbp4,DRSC14222,97690,1.91e5,1.82e6,2.27e6,inactive
Jon99Ciii + Jon99Fi + Jon99Fii + 1 more,DRSC29104,3.03e5,3.10e5,8.39e5,8.92e5,inactive
ImpE3,DRSC16716,61361,71212,1.94e6,2.06e6,inactive
Sym,DRSC12301,53230,31752,4.40e5,4.33e5,inactive
Sym,DRSC29255,4.64e5,5.23e5,1.16e6,1.18e6,inactive
Eps-15,DRSC04288,6.70e5,6.46e5,1.05e6,1.18e6,inactive
gkt + CR31953,DRSC00709,5.45e5,7.17e5,2.04e6,1.65e6,inactive
zf30C,DRSC03641,1.24e6,1.30e6,1.88e6,1.88e6,inactive
Hsp23,DRSC11188,8.36e5,8.86e5,8.18e5,1.23e6,inactive
Hsp23,DRSC29302,3.25e5,5.86e5,8.11e5,1.25e6,inactive
